Binding data for six molecules are collected here from PMC10085704.

The chains behind the UniProt entries cited, without tags or fusion partners.
UniProt Q5SVQ0: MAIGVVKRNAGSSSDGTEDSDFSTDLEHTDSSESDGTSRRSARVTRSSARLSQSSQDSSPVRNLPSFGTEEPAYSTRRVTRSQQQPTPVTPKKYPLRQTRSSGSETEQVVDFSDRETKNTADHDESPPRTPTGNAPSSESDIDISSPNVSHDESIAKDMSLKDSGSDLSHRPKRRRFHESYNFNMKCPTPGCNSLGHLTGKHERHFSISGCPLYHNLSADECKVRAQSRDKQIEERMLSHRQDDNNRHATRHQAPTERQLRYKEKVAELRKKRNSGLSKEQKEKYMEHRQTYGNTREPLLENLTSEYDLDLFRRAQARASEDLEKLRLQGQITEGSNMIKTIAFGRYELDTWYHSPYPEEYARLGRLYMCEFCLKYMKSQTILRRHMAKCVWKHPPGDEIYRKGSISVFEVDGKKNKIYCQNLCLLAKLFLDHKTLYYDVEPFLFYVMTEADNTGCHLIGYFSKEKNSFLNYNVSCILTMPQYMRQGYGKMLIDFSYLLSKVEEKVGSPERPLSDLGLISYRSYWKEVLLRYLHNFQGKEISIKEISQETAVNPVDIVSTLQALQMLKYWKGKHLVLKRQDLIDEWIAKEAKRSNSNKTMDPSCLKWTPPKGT
UniProt Q8C0D7: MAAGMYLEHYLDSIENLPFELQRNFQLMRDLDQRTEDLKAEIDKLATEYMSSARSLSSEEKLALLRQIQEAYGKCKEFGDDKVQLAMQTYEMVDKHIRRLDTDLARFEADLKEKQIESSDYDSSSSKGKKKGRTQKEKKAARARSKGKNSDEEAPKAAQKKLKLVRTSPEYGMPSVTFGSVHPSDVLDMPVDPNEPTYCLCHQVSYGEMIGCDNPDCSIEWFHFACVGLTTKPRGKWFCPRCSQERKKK
UniProt Q6ZPI0: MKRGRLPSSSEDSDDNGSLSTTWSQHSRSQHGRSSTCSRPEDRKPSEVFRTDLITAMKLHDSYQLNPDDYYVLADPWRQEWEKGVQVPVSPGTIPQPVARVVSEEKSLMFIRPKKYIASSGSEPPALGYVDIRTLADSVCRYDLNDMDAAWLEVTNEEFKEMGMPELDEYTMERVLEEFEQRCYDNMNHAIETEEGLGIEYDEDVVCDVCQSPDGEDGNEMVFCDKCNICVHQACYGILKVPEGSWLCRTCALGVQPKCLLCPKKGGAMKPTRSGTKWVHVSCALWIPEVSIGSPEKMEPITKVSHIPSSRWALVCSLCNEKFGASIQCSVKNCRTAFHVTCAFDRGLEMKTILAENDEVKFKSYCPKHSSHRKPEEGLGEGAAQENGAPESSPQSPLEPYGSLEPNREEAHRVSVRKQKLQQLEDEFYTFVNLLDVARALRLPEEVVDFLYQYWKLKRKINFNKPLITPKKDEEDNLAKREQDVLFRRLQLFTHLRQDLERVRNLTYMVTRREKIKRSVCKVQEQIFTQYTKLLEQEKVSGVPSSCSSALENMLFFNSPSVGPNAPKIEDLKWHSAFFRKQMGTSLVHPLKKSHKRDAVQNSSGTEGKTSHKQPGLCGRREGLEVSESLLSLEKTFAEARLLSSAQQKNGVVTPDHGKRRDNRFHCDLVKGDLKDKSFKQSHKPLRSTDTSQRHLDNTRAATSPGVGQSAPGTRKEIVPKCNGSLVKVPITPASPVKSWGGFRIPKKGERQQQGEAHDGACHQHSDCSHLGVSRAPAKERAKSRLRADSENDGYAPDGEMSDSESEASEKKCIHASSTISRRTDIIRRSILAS
UniProt B2RRD7: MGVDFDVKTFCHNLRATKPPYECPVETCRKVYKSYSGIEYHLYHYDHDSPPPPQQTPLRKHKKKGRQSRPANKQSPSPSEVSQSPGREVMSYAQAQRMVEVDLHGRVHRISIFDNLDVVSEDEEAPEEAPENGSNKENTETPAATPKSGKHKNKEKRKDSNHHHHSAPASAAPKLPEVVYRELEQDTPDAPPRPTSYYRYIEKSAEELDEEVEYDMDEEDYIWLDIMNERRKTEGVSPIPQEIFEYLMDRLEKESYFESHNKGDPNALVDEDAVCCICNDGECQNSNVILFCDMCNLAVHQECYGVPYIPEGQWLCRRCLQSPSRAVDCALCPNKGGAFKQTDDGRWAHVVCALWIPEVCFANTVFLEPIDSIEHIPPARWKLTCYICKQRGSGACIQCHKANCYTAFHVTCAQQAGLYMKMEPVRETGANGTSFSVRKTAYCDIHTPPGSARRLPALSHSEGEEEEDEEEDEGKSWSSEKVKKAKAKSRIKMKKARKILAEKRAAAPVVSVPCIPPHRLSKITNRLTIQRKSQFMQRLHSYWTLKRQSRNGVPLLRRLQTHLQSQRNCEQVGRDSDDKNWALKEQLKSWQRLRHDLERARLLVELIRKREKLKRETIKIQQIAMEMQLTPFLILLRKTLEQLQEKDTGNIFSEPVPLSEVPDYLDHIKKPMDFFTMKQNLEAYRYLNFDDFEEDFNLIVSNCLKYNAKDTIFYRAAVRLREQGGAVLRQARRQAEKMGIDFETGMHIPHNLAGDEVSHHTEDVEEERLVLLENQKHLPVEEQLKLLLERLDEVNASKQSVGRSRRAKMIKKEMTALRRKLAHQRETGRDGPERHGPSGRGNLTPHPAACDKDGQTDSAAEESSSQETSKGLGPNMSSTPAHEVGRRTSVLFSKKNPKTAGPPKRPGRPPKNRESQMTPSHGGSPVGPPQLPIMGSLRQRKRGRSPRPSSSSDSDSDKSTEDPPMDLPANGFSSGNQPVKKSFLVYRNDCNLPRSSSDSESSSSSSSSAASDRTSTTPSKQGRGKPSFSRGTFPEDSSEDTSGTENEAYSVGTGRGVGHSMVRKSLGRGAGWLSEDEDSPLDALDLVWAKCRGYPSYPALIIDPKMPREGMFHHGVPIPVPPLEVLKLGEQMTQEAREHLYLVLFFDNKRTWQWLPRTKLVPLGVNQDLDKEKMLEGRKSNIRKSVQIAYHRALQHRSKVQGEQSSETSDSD
UniProt Q6ZQF7: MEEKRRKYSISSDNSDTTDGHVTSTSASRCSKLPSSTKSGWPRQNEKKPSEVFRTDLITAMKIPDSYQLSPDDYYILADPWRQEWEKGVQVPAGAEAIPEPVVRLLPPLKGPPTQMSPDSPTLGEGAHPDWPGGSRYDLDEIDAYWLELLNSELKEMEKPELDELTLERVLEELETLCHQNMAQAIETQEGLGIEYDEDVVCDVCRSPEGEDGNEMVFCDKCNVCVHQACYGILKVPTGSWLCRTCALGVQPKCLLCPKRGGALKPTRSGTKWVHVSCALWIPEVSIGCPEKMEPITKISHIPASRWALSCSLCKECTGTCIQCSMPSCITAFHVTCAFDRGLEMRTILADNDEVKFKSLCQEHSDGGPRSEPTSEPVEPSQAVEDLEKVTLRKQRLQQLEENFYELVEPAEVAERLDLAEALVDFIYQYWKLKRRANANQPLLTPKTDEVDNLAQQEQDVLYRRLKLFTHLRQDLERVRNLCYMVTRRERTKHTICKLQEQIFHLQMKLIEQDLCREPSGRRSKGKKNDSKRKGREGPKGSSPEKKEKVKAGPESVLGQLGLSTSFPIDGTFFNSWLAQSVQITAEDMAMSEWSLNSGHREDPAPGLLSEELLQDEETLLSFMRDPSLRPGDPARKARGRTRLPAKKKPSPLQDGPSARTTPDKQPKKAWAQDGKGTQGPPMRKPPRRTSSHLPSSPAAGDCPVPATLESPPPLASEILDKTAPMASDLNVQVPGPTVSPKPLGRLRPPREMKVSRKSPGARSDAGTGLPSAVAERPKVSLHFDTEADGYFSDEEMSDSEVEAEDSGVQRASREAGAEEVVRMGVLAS
UniProt Q9D8Y8: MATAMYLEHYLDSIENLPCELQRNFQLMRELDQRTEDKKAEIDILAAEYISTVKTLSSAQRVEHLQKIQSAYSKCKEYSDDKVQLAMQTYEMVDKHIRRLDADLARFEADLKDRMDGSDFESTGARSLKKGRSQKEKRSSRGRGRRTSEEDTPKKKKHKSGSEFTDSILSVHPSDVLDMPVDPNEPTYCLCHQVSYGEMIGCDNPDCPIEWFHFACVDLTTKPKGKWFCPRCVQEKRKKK

These are yes or no findings as the source states them, for the method shown. Binding seen in cells or lysates may run through a third protein. Here binding means that the protein was enriched with, or labelled near, the bait; the list need not be complete.

First the molecules themselves.
B1: JADE3 (protein, UniProt Q6IE82 1-823)
chain: MKRHRPVSSSESSDECPSTSFTSSSMYRKKSKNPKEQKKSAEVFRKDLISAMKIPDSHHVNPDSYYLFTDTWKEEWEKGVQVPANPDSVPTPSLRIISEKVKEMLFVRPRKYIRCSSPESAEPGYINTLEQAASTCRYDLDDMDIFWLQELNEDLGEMGYGPIDETLMEKTIEVLERHCHENMNHAIETVEGLGIEYDEDVICDVCRSPDSEEGNDMVFCDKCNVCVHQACYGILKIPEGSWLCRSCVLGIYPQCVLCPKKGGAMKTTRTGTKWAHVSCALWIPEVSIACPERMEPVTKISHIPPSRWALVCNLCKLKTGACIQCSVKSCITAFHVTCAFEHGLEMKTILDEGDEVKFKSFCLKHSQNKPKLGDAEYHHHRVAEQSQAKSEKTSLRAQKLRELEEEFYTLVQVEDVAKEMELSAFTVDFIYNYWKLKRKSNFNKPLIPPKEEEENGLVQPKEESIHTRMRMFMHLRQDLERVRNLCYMISRREKLKLSHTKVQEQIFGLQVQLINEEITEGLSLTNALENSLFYPPPRITLKLKMPKSTSEDCKDSSTETEHQLSSPGSSSPGHSKRSPQMPEEPLDMNVKIYPRYPLESKSNCLQTSRSHSRCETKSSSPTPRAPSAEFYHGQSLGKPLALQAALHGQVSIGNGKNQPNSRVSSSNGLEGNWSGNITQKVNSSEVCYDQESMLSSHLPSPGNIRKSSMEHFSRSFKEATNTWVKPTEDLQYCVKPTKNVSSKEQLWGRQLLRRPTGRASYQETDGYCPDLEPSDSEAEGEGSKETPRVKRESSDRENPSHDSARECHGKTKTHPHSHSSMQR

The target in the assay is KAT7 (mouse (endogenous in mouse PSCs)) (UniProt Q5SVQ0). Description: affinity purification with mass spectrometry; ChIP-MS with a KAT7 antibody (Abcam ab70183) against normal rabbit IgG; cells crosslinked in 1% paraformaldehyde, lysed in IP buffer, sonicated; protein A sepharose; low salt and high salt (500 mM NaCl) washes; on-bead digestion; triplicates in naive, formative and primed mouse PSCs.
Regarding ING4 (from UniProt Q8C0D7 1-249), the binding entry is reported as “binds”.

Regarding JADE1 (from UniProt Q6ZPI0 1-834), the binding entry was “binds”.

Take BRPF1 (from UniProt B2RRD7 1-1212): the binding result was “binds weakly”.

For JADE2 (from UniProt Q6ZQF7 1-829), the binding entry is “binds”.

As to ING5 (from UniProt Q9D8Y8 1-240), the binding entry is on record as “binds”.

Turning to B1, the binding entry is on record as “binds”.
